Test results as given in PMC8371905.
No constants are given. Whether binding was seen depends on the method and setting. For part of these data: Binding seen in cells or lysates may run through a third protein. Some results given as binding are weak or reduced against the parent protein; the word gives no strength.

By UniProt entry, the sequences of proteins in these tests, tags left out. Residues count along the entry.
UniProt Q96PZ7, residues 27-3564: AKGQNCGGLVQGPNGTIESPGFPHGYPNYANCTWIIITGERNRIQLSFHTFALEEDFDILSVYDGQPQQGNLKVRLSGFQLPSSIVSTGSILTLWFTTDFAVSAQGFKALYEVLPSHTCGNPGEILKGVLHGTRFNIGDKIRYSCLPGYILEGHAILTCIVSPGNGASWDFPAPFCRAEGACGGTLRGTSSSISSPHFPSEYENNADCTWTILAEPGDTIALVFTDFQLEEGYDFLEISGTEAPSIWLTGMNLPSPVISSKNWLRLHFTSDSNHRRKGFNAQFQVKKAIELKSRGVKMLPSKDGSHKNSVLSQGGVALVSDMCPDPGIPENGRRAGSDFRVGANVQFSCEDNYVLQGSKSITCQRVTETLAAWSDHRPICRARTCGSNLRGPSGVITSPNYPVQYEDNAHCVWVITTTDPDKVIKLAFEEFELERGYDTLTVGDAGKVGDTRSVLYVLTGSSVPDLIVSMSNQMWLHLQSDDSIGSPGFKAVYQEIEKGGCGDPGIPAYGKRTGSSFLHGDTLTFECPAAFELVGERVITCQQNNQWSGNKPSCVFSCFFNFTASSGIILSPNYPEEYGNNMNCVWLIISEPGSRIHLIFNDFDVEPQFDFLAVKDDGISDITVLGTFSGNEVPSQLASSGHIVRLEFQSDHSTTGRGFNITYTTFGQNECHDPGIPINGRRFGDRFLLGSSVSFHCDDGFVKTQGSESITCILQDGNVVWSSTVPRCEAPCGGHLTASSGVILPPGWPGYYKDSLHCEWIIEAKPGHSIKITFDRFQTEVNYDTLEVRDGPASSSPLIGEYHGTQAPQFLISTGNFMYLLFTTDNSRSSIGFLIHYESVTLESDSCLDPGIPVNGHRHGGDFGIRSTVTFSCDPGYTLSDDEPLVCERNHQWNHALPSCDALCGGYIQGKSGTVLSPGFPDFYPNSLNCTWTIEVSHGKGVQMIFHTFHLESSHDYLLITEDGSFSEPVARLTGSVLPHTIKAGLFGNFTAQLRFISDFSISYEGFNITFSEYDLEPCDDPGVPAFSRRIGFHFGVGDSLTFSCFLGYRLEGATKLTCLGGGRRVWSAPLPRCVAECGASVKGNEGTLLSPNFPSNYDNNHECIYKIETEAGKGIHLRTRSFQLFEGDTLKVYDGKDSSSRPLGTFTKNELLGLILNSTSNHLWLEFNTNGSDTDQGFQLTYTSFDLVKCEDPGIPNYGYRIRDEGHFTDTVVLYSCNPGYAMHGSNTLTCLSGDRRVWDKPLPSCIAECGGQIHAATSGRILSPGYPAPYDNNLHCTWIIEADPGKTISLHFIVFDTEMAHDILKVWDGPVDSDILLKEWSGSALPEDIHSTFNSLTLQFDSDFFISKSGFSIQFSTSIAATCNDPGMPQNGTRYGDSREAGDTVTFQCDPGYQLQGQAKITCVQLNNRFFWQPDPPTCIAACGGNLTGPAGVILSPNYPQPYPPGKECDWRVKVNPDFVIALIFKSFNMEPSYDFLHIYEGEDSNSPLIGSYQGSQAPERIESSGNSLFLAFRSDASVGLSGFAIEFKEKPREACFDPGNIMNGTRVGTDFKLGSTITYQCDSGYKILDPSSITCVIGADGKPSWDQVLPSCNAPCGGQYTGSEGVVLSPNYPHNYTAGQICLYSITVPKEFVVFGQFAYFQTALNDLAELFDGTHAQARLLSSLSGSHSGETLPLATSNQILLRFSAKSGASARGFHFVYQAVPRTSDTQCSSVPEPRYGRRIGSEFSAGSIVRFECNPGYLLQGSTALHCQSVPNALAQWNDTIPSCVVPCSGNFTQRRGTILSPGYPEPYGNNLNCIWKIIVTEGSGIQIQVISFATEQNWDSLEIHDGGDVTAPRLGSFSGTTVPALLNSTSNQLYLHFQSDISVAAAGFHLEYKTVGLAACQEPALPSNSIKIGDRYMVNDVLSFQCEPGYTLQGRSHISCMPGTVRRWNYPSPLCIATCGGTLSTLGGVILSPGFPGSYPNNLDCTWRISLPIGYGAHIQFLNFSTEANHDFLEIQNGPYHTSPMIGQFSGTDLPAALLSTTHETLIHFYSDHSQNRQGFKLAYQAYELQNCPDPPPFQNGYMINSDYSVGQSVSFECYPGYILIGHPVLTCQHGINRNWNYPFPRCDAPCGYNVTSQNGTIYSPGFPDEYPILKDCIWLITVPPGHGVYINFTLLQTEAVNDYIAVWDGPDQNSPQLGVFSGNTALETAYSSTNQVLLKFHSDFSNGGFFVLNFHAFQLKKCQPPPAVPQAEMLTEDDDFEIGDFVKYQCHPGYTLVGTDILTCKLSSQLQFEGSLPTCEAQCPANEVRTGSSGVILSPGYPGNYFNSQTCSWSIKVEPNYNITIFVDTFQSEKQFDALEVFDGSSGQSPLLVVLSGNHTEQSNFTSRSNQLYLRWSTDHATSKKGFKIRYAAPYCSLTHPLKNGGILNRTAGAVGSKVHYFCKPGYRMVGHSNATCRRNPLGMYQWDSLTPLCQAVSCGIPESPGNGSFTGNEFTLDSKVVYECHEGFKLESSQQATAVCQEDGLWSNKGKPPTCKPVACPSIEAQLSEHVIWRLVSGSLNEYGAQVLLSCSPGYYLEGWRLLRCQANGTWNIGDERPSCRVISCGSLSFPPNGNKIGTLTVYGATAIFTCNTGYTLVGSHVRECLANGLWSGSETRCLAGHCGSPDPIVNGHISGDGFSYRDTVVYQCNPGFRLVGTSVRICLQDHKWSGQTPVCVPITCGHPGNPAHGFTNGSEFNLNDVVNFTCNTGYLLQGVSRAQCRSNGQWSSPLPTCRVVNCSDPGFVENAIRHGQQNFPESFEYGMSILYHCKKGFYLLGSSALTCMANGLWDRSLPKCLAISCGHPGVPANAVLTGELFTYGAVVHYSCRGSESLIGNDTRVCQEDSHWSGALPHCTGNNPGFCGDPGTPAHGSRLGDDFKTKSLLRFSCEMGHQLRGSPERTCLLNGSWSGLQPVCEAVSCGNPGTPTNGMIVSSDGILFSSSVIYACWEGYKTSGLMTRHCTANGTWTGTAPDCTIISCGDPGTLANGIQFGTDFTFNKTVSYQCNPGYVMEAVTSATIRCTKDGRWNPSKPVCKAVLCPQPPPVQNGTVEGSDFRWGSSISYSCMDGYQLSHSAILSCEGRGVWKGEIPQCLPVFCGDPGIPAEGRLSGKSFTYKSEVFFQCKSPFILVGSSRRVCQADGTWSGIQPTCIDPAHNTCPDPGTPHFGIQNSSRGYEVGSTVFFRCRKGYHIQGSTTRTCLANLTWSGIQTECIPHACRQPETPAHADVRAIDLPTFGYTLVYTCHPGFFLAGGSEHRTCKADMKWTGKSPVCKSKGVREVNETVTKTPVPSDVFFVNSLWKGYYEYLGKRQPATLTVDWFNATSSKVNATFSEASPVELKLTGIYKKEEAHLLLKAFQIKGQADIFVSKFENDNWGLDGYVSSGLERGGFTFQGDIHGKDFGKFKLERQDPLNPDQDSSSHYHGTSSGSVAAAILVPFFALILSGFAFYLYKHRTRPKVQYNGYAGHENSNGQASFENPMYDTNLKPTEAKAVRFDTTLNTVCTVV

Experiments:
[1] = target: Human CUB and Sushi multiple domains 1 (CSMD1) (human) (UniProt Q96PZ7); test: co-IP; BT-20 cell lysates immunoprecipitated with anti-CSMD1 or corresponding IgG control, immunodetection of EGFR and CSMD1
[2] = target: Human CUB and Sushi multiple domains 1 (CSMD1) (human) (UniProt Q96PZ7); test: co-IP; MDA-MB-231 CTRL and CSMD1 cell lysates in minimally denaturing conditions; 1 mg total protein, Protein G or A Dynabeads pre-coated with 5 ug capturing antibody (anti-EGFR or anti-CSMD1, isotype IgG control), overnight, washed with NP40 buffer; Western blot
[3] = target: Epidermal Growth Factor Receptor (EGFR) (human (endogenous in MDA-MB-231 and BT-20)) (UniProt P00533); test: proximity ligation; Dual link kit (Sigma) on fixed (4% formaldehyde), permeabilised (0.1% Triton X-100) MDA-MB-231 CTRL and CSMD1 cells; anti-CSMD1 and anti-EGFR antibodies; dots per cell counted
[4] = target: Epidermal Growth Factor Receptor (EGFR) (human (endogenous in MDA-MB-231 and BT-20)) (UniProt P00533); test: co-IP; MDA-MB-231 CTRL and CSMD1 cell lysates in minimally denaturing conditions; 1 mg total protein, Protein G or A Dynabeads pre-coated with 5 ug capturing antibody (anti-EGFR or anti-CSMD1, isotype IgG control), overnight, washed with NP40 buffer; Western blot
[5] = target: Myc-tagged intracellular domain of EGFR (ICD), pcDNA6A-EGFR ICD (645–1186) (UniProt P00533); test: ELISA; anti-c-myc capturing antibody immobilised, incubated with lysates of MDA-MB-231 CTRL and CSMD1 cells transiently transfected with Myc-ECD-EGFR or Myc-ICD-EGFR, detected with anti-CSMD1 antibody; two CSMD1 clones
[6] = target: Epidermal Growth Factor Receptor (EGFR) (human (endogenous in MDA-MB-231 and BT-20)) (UniProt P00533); test: ELISA; anti-EGFR antibody immobilised to capture EGFR complexes from MDA-MB-231 lysates (non-denatured conditions), detected with anti-CSMD1 antibody; two CSMD1 clones

binding [1] | binding [2] | binding [3] | binding [4] | binding [5] | binding [6] | Substance
binds | binds |  |  |  |  | Epidermal Growth Factor Receptor (EGFR) (from UniProt P00533 25-1210)
 |  | binds | binds | binds | binds | Human CUB and Sushi multiple domains 1 (CSMD1) (from UniProt Q96PZ7 27-3564)
